# Source: PubChem BioAssay AID2718 (Broad Institute, 2010)
# Protein sequences, listed by entry. Tags and fused reporters are not part of them. Lines headed by an entry give the natural chain unless they say otherwise; changes in a name come on top.
# UniProt O15379: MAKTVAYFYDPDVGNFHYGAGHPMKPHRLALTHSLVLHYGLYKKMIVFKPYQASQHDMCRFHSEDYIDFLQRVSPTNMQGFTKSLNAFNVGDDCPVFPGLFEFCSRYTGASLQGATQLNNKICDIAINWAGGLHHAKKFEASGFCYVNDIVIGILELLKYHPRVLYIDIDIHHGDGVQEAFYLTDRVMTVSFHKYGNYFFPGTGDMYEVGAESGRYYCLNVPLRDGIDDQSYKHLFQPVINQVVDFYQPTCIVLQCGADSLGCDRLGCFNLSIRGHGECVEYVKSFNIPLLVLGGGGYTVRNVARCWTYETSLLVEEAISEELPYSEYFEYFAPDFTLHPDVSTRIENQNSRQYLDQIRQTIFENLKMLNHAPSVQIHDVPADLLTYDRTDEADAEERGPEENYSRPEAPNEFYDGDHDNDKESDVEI
# The campaign covered roughly 320,000 compounds. About 480 (0.15%) were called active. The inconclusive results got no clear call from the source; some entries with a clear call stand among them for comparison. Rule as the data show it: active = inhibition above about 26% (passing the limit was not always enough); inconclusive = no clear call, values can overlap the other calls.
# Target: Histone deacetylase 3 (Homo sapiens) (UniProt O15379)
# Test: HDAC3 deacetylase inhibitors, primary screen, biochemical, fluorescence, cell-free homogeneous (AID 2718)
# Details: recombinant HDAC3, fluorogenic peptide/trypsin coupled, at 8.3 µM, hits give high values
row,Compound,inhibition
1,COC(=O)Nc1nnc(Cc2ccc(Cl)cc2)s1,inconclusive: 27.3%
2,Cc1cc(C)c(C(=O)/C=C/c2ccc3c(c2)OCO3)c(=O)[nH]1,inconclusive: 12.1%
3,CCN(CC(=O)NCc1ccc(Cl)cc1)C(=O)CSCC(=O)Nc1ccc(OC)cc1,inconclusive: 14.3%
4,CCOC(=O)C1CCCN(CC(O)COc2cccc(C)c2)C1 (stereo not given),inconclusive: 14%
5,CCCCn1c(CNC(=O)C(C)(C)C)nc2ccccc21,inconclusive: 19.2%
6,C=CCN1C(=O)C2C(C(=O)NC3CCCC3)C3C=CC2(O3)C1C(=O)NC1CCCC1 (stereo not given),inconclusive: 14.7%
7,CCC(CC)c1nnc(NC(=O)c2nc3nc(C)cc(C)n3n2)s1,inactive: 3.56%
8,CC(C)(C)C(=O)NC(=S)NCCc1ccccc1,inconclusive: 17.4%
9,O=C(CSc1nc2ccccc2s1)Nc1ccc2c(c1)OCO2,inconclusive: 36.5%
10,COc1ccc(-c2n[nH]c(=S)n2-c2ccc3c(c2)OCCO3)cc1OC,inconclusive: 16.7%
11,CC(=O)N1N=C(c2ccccc2)CC1c1cccc([N+](=O)[O-])c1 (stereo not given),inactive: 0.00879%
12,COc1ccc(N2C(=O)CC(Sc3n[nH]c(-c4cccc(C)c4)n3)C2=O)cc1 (stereo not given),inactive: 3.09%
13,Fc1ccccc1CN(CCN1CCOCC1)C(=S)Nc1ccccc1Cl,inconclusive: 29.2%
14,Cc1c(Br)cnn1C(C)C(=O)N1CCN(c2ccc(F)cc2)CC1 (stereo not given),inactive: -4.41%
15,CCN1CCN(C(CNS(=O)(=O)c2ccccc2)c2ccccc2)CC1 (stereo not given),inconclusive: 19.9%
16,N/C(=N\OC(=O)COc1cc(Cl)c(Cl)cc1Cl)c1ccncc1,inconclusive: 19.9%
17,Cc1cc2ccccn2c1C(C[N+](=O)[O-])c1ccc(N(C)C)cc1 (stereo not given),inconclusive: 17.9%
18,CCN(CC)c1nc(OCCNC(=O)Nc2ccccc2)nc(N(CC)CC)n1,inconclusive: 20.6%
19,O=C(O)CN1CCCC1=Nc1ccccc1,inconclusive: 6.71%
20,Cc1[nH]n2c(=O)cc(C(C)(C)C)nc2c1-c1ccccc1,inconclusive: 19.6%
21,COc1ccc(C(=O)N/N=C/c2ccc(OC)c(CSc3ccccn3)c2)cc1,inactive: 0.977%
22,Cn1c(SCC(=O)Nc2nc3ccccc3s2)nnc1-c1ccccc1,inconclusive: 11.1%
23,CN(C)S(=O)(=O)c1cccc(NC(=O)C2Cc3ccccc3CN2C(=O)c2ccco2)c1 (stereo not given),inactive: -4.5%
24,COc1ccc(C(=O)NCC(=O)N/N=C/c2ccco2)cc1OC,inconclusive: 29.8%
25,C=CCOc1ccccc1/C=c1\sc2nc(-c3oc4ccccc4c3C)nn2c1=O,inconclusive: 15.1%

# Two of these compounds, set out differently.
row | Compound | inhibition
5 | CCCCn1c(CNC(=O)C(C)(C)C)nc2ccccc21 | inconclusive: 19.2%
10 | COc1ccc(-c2n[nH]c(=S)n2-c2ccc3c(c2)OCCO3)cc1OC | inconclusive: 16.7%
